Test results published in patent US9545106B2, “Insecticidal compounds” (Syngenta Participations AG, priority 2011, dated 2017).
Some of these results come from one statement about several compounds together.

Tests used:
Format in all cases: in vivo
Plutella xylostella = Plutella xylostella (diamond back moth) larva test on artificial diet; conditions: application rate 200 ppm (concentration in well 18 ppm), L2 larvae, larval mortality and growth regulation after 6 days
Spodoptera littoralis = Spodoptera littoralis (Egyptian cotton leafworm) cotton leaf disc spray test; conditions: application rate 200 ppm, cotton leaf discs, 5 L1 larvae; mortality, feeding behavior, growth regulation 3 days after treatment
Tetranychus urticae = Tetranychus urticae (two-spotted spider mite) bean leaf disc spray test; conditions: application rate 200 ppm, bean leaf discs, mite populations of mixed ages; egg, larval and adult mortality 8 days later
Thrips tabaci = Thrips tabaci (onion thrips) sunflower leaf disc spray test; conditions: application rate 200 ppm, sunflower leaf discs, thrip population of mixed ages; mortality after 7 days
Diabrotica balteata = Diabrotica balteata (corn root worm) larva test on artificial diet; conditions: application rate 200 ppm (concentration in well 18 ppm), L2 larvae, larval mortality and growth regulation after 5 days
Heliothis virescens = Heliothis virescens (tobacco budworm) egg/larva test on artificial diet; conditions: application rate 200 ppm (concentration in well 18 ppm), eggs 0-24 h old on artificial diet; egg mortality, larval mortality, growth regulation after 4 days

CCN1OC[C@@H](NC(=O)c2ccc(C3=COC(c4cc(Cl)cc(Cl)c4)(C(F)(F)F)C3)cc2C)C1=O (stereo partly drawn) [Compound C1, 4-[2-(3,5-dichlorophenyl)-2-(trifluoromethyl)-3H-furan-4-yl]-N-[(4R)-2-ethyl-3-oxo-isoxazolidin-4-yl]-2-methyl-benzamide, reference compound]
at least 80%: control of Plutella xylostella (Plutella xylostella) | control of Spodoptera littoralis (Spodoptera littoralis) | control of Tetranychus urticae (Tetranychus urticae) | control of Thrips tabaci (Thrips tabaci) | control of Diabrotica balteata (Diabrotica balteata) | control of Heliothis virescens (Heliothis virescens)

Cc1cc(C2=COC(c3cc(Cl)cc(Cl)c3)(C(F)(F)F)C2)ccc1C(=O)N[C@@H]1CON(CC(F)(F)F)C1=O (stereo partly drawn) [Compound C2, 4-[2-(3,5-dichlorophenyl)-2-(trifluoromethyl)-3H-furan-4-yl]-2-methyl-N-[(4R)-3-oxo-2-(2,2,2-trifluoroethyl)isoxazolidin-4-yl]benzamide, reference compound]
at least 80%: control of Plutella xylostella (Plutella xylostella) | control of Spodoptera littoralis (Spodoptera littoralis) | control of Tetranychus urticae (Tetranychus urticae) | control of Thrips tabaci (Thrips tabaci) | control of Diabrotica balteata (Diabrotica balteata) | control of Heliothis virescens (Heliothis virescens)
